## Screening data, single-dose tests

Sequences of proteins named here, by UniProt entry; tags and fusion partners are left off.
UniProt P9WPC5, whole entry: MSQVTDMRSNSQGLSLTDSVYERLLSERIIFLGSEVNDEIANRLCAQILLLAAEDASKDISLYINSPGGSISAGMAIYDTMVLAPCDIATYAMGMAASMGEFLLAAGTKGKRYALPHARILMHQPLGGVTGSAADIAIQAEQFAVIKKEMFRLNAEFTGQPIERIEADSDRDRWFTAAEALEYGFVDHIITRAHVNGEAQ
UniProt P9WPC3, whole entry partner: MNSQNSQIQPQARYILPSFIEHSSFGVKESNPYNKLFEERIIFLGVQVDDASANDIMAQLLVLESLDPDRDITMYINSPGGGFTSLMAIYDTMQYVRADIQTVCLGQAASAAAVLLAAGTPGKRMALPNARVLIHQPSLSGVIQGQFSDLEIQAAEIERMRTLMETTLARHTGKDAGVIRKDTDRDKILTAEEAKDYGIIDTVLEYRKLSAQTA
UniProt P9WNZ1, whole entry: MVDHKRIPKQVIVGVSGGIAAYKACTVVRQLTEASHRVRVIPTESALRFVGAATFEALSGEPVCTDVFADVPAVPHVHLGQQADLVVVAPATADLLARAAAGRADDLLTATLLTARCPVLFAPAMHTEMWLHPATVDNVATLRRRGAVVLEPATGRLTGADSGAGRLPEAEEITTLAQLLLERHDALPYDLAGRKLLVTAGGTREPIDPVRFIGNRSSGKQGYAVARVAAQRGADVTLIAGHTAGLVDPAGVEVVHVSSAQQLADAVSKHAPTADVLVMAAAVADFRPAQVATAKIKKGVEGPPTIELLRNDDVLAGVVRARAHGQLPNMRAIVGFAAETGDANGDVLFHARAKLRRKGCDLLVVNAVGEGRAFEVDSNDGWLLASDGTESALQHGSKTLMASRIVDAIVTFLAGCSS

Source: ChEMBL document CHEMBL3988442, “University of Dundee, Small-Polar-MMV Screening Library” (2021).

Results are given as percent effect. How 0% and 100% were set is not recorded. Most values in the screen are low, and negative values occur. Compounds were drawn at random from those tested, without regard to their results. A dash means the value is not listed here; it may have been measured.

ClpP1P2: 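Protease assay of ClpP1P2, read by the AMC dye that it sets free. Target: ClpP1P2, Mycobacterium tuberculosis (UniProt P9WPC5 and UniProt P9WPC3). Compounds at 50 µM. Direction is inferred from only a few compounds that gave an IC50; most scored high, so higher reads as stronger inhibition. Most other retested compounds had strongly negative values. About 69,000 compounds were tested under these conditions; 0.015% (about 10) showed 50% or more at least once.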
CoaBC: 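Enzyme assay of CoaBC with a phosphate dye (Biomol Green) read at 650 nm. Target: Coenzyme A biosynthesis protein CoaBC, Mycobacterium tuberculosis (UniProt P9WNZ1). Compounds at 30 µM. Higher reads as stronger inhibition, judged from the few compounds that gave an IC50. Most strong results did not repeat in a second test. Size under these conditions: about 67,000 compounds, about 40 of them at 50% or above in at least one test.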
Toxoplasma: 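Assay of Toxoplasma gondii numbers, read through their beta-galactosidase reporter with a colour substrate. Concentration: 10 µM. The record gives no direction; the compounds picked for IC50 retests had high values, so higher reads as fewer parasites. Of about 67,000 compounds tested this way, about 260 (0.38%) reached 50% or more in at least one test.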

structure,ClpP1P2,CoaBC,Toxoplasma
c1cnc2c(c1)nc1n2[C@@H](CNCc2nccs2)COC1,-12.36,7.419,-0.1232
O=C(c1cc(C2CC2)on1)N1C[C@@H]2COC[C@]2(COc2cccnc2)C1,-0.09304,1.975,-
Cc1nc(NCc2cccnc2)c2c(n1)c(C)nn2C,4.224,8.182,-7.547
O=C(c1ccoc1)N1CCC(O)(C(F)(F)F)CC1,0.02496,9.764,-5.989
CC(C)c1nnc2n1CCN(C(=O)c1ccc3c(c1)CCC3)C2,-14.99,3.864,-1.804
O=C1CC(NS(=O)(=O)c2ccc(Br)cc2)CN1 (stereo unspecified),-14.93,0.6017,-13.17
CCSCC(C)NCc1ccccc1-n1ccnc1 (stereo unspecified),1.216,-1.106,-10.63
CC(C)c1cnc(CN(C)C2CCN(CCCc3cnn(C)c3)C2)o1 (stereo unspecified),-10.4,2.872,-10.32
Cc1cccc(C(=O)N(C)C2CCN(c3ccccn3)CC2)c1C,-20.76,3.916,2.808
Cc1cnccc1NC(=O)CCc1ccsc1,4.406,7.851,1.491
O=C(O)C(F)(F)F.O=C(O)C(F)(F)F.O=C(O)C(F)(F)F.[H][C@@]12C[C@@H](OCc3cccnc3)CN1CCN(Cc1nccn1C)C2,-,-,5.127
COCCCn1cnnc1CNc1cc(C)nc2ccnn12,5.033,1.434,0
Cn1nc(Cn2ccnc2)c2c1CN(c1nccs1)C2.O=C(O)C(F)(F)F.O=C(O)C(F)(F)F,-,-,-1.26
Cc1ccc(S(=O)(=O)NC2CCC(=O)NC2)cc1Br (stereo unspecified),-0.3106,6.114,3.133
[H][C@@]12CN(C(=O)[C@H]3CCCO3)C[C@]1([H])C(=O)N(Cc1ccc(OC)cc1)C2,-,-,2.552
O=C(NC1CC1)[C@H]1C[C@H]2OCC[C@H]2N(Cc2ccc(F)cc2)C1,-6.673,3.871,-
O=c1n(CCNCc2cccc3ccccc23)nc2ccccn12,-3.336,2.02,-0.4537
CCN(CCn1c(=O)oc2ccccc21)CC1CCOCC1,-16.06,5.123,-5.743
Cn1nc(Cn2ccnc2)c2c1CN(c1ncccn1)C2.O=C(O)C(F)(F)F,-,-,0
COc1cc(C)c(C2CC(=O)Nc3cc(NS(C)(=O)=O)ccc32)cc1C (stereo unspecified),-8.133,0.8872,2.27
Cc1cc(-c2cnc(NC3CC3)nc2-c2ccco2)on1,1.605,5.882,2.335
CCN(CC)C(=O)c1ccc(-n2ncc(C#N)c2N)cc1,0.7049,-12.06,14.92
CS(=O)(=O)c1ccccc1C(=O)NCC1Cc2ccccc2O1 (stereo unspecified),10.87,-1.066,5.473
CC(C)(C)C(=O)NCCC(=O)NS(=O)(=O)c1cccnc1,0.1978,-5.186,6.077
Cc1ccc(C(=O)N2CCN(CCCSCC#N)CC2)cc1F,2.25,12.12,-1.364
O=C(COc1cccnc1)NCc1nncn1C1CCCCC1,-10.35,0.3686,3.84
Cc1cccc(CN2C(=O)CCC23CCN(C(=O)N2CCCC2)CC3)n1,-7.432,0.7059,-
Cc1nc(C(C)C)sc1C(=O)N(C)CCCc1cnn(C)c1,2.861,1.818,7.506
OC(c1ccccc1)C1CCN(Cc2csc(-c3ncccn3)n2)CC1 (stereo unspecified),-14.33,12.58,-23.45
c1ccc(COC2CCN(Cc3cc4n(n3)CCCNC4)CC2)nc1,-10.39,1.018,-21.77
CN1CCC/C1=N\S(=O)(=O)c1ccc(NC(=O)c2cccs2)cc1,7.842,-0.527,13.24
COc1ccc(CN2CCN(CC3CC3)[C@@H]3CS(=O)(=O)C[C@@H]32)cc1O,4.914,0.2571,-
O=C(NCc1ccccn1)[C@@H]1COC[C@H]2CN(C3CCC3)C[C@H]21,-3.538,5.25,-
COc1ccccc1C(=O)N1Cc2cc(C)ccc2OCC1CN(C)C.Cl (stereo unspecified),-,-,7.495
Cc1cc(N2CCC3(CCCN(CCO)C3=O)C2)nc2ccccc12 (stereo unspecified),-12.91,7.905,-13.58
COCCCN(CCOC)C(=O)Nc1ccc(C)cc1C,2.9,5.803,1.156
Cc1ccc(F)c2c1CCCN2CC(=O)NC1CCS(=O)(=O)C1 (stereo unspecified),9.496,3.883,-5.857
CC1N(C)C(=O)COC12CCN(Cc1ccsc1)CC2 (stereo unspecified),-3.155,-,-
CS(=O)(=O)NCc1cc(-c2cc(F)cc(F)c2)nc(N2CCCC2)n1,1.706,-0.1205,-9.676
Cc1cccnc1NC(=O)C1CCN(C(C)C(=O)NC(C)(C)C)CC1 (stereo unspecified),10.33,0.4577,4.198
Cc1cc(C)c(S(N)(=O)=O)cc1C(=O)NCC1Cc2ccccc2O1 (stereo unspecified),-6.423,-1.711,-3.18
O=C(O)C(F)(F)F.[H][C@@]12CCN(Cc3ccc(F)cc3)[C@]1([H])CC[C@H](COCC1CCOCC1)O2,-,-,1.608
O=C(Cc1ccc2c(c1)CCCC2)NCCNc1cnccn1,-42.27,3.52,-9.574
CCCS(=O)(=O)N1CCOC2(COCCN(C(C)=O)C2)C1 (stereo unspecified),-1.102,-,-3.074
CCc1nc2n(n1)CC(NCC(=O)Nc1ccc(Cl)cn1)CC2 (stereo unspecified),-17.93,5.656,-
O=C(NCCc1ccccc1F)NCC(O)c1cccc(F)c1 (stereo unspecified),-8.536,8.075,-23.64
COC(C)(C)CC(C)NC(=O)Nc1ccccn1 (stereo unspecified),-8.215,-3.043,2.559
[H][C@]12CC[C@]([H])(CN(C(=O)N(C)C)C1)N(C(=O)Cn1ccnc1CC)C2,-,-,8.872
CS(=O)(=O)NCc1cnc2n1CCN(Cc1ccco1)CC2,-13.11,-1.603,-
O=C(CN1CCCC1Cn1cncn1)NCC1(c2ccccc2)CC1 (stereo unspecified),-10.93,1.786,-0.1831
COc1cc(CN2CCCC(Nc3cccc(F)c3)C2)cc(Cl)c1O (stereo unspecified),-22.13,-4.292,-3.304
Cc1nn(C)c2nc(N(Cc3ccccc3)CC3CCCO3)sc12 (stereo unspecified),0.4023,5.048,3.558
CS(=O)(=O)N1CCN(C(=O)C2CSCCC(=O)N2)CC1 (stereo unspecified),-13.7,0.2545,-2.243
O=C(CCc1ccccc1)N1CCN(C(=O)c2ccc[nH]2)CC1,1.611,2.386,8.905
Cc1ccc(NC2CCN(C(=O)c3ccc(C(N)=O)s3)CC2)nn1,-33.92,3.394,-0.2516
[H][C@@]12C[C@H](C(=O)N3CCCC3)[C@@]([H])(CN(C(=O)NCc3ccccc3)C1)O2,-,-,0.6439
CN(C)S(=O)(=O)N1CC[C@]2(O)CCN(CCc3cccc(F)c3)C[C@@H]2C1,0.2472,-8.738,-
NC(=O)C1CCCN1Cc1cccc(NC(=O)c2cccs2)c1 (stereo unspecified),10.41,-41.32,7.558
O=C(c1cc2c([nH]c1=O)CCC2)N1CCCC1c1ccccc1 (stereo unspecified),1.352,6.25,-1.674
Fc1cnc(N2CC[C@@H](N3CCOCC3)[C@@H]2Cc2ccncc2)nc1.O=C(O)C(F)(F)F.O=C(O)C(F)(F)F,-,-,-1.452

Some entries from above, unchanged:

| structure | ClpP1P2 | CoaBC | Toxoplasma |
|---|---|---|---|
| `Cn1nc(Cn2ccnc2)c2c1CN(c1ncccn1)C2.O=C(O)C(F)(F)F` | - | - | 0 |
| `CC(C)c1cnc(CN(C)C2CCN(CCCc3cnn(C)c3)C2)o1` (stereo unspecified) | -10.4 | 2.872 | -10.32 |
| `Cc1nn(C)c2nc(N(Cc3ccccc3)CC3CCCO3)sc12` (stereo unspecified) | 0.4023 | 5.048 | 3.558 |
| `CCSCC(C)NCc1ccccc1-n1ccnc1` (stereo unspecified) | 1.216 | -1.106 | -10.63 |